Test results published in patent US5721265A, “Fluorinated 2-nitroimidazole analogs for detecting hypoxic tumor cells” (priority 1995, dated 1998).
At least one compound was matched to its structure with a doubt left.

System: A2780 spheroids
Test: retention in human ovarian A2780 spheroids by electron energy loss spectroscopy (EELS)
Format: cell-based
Conditions: 22 h chase

## O=C(Cn1ccnc1[N+](=O)[O-])NCC(O)C(F)(F)F (racemic) [SR 4554]
1 mM SR 4554, 3 h, 37° C
  accumulation in inner versus outer spheroid cells: accumulate in the inner, more hypoxic cells near the center of the spheroids in preference to the outer cells
1 mM, 3 h, in air, p<0.05
  level of fluorine (F/N ratio), cells near center vs periphery of the spheroid: seven-fold higher
